No constants are given. Whether binding was seen depends on the method and setting. Binding seen in cells or lysates may run through a third protein. Some results given as binding are weak or reduced against the parent protein; the word gives no strength.
T1: MYSM1 (Co-IP with JAK1 and SHP2, Figure S5B-C) (UniProt Q69Z66)
T1 sequence: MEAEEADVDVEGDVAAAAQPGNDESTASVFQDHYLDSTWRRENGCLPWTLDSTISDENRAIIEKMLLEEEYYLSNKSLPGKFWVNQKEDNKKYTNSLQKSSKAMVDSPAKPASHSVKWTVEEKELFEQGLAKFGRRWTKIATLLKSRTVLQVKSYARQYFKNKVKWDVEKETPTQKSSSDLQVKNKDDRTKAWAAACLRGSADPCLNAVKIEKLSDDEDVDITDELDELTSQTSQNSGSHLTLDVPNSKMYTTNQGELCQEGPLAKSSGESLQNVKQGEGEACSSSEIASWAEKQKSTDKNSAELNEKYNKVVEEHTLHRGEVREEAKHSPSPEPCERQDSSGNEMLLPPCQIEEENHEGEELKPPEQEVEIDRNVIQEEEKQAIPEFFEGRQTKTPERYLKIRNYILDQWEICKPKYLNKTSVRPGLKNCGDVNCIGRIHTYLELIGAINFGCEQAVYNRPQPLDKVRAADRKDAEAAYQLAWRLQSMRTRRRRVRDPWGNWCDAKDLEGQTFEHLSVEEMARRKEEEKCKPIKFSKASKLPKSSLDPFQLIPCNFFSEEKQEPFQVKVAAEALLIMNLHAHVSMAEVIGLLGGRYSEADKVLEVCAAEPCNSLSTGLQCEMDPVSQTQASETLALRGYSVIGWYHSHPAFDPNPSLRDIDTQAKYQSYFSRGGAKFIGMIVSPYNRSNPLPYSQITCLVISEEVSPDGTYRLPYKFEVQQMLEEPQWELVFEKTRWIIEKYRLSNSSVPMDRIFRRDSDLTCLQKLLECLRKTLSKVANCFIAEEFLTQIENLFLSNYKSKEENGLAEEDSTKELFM

The chains behind the UniProt entries cited, without tags or fusion partners.
UniProt P52332: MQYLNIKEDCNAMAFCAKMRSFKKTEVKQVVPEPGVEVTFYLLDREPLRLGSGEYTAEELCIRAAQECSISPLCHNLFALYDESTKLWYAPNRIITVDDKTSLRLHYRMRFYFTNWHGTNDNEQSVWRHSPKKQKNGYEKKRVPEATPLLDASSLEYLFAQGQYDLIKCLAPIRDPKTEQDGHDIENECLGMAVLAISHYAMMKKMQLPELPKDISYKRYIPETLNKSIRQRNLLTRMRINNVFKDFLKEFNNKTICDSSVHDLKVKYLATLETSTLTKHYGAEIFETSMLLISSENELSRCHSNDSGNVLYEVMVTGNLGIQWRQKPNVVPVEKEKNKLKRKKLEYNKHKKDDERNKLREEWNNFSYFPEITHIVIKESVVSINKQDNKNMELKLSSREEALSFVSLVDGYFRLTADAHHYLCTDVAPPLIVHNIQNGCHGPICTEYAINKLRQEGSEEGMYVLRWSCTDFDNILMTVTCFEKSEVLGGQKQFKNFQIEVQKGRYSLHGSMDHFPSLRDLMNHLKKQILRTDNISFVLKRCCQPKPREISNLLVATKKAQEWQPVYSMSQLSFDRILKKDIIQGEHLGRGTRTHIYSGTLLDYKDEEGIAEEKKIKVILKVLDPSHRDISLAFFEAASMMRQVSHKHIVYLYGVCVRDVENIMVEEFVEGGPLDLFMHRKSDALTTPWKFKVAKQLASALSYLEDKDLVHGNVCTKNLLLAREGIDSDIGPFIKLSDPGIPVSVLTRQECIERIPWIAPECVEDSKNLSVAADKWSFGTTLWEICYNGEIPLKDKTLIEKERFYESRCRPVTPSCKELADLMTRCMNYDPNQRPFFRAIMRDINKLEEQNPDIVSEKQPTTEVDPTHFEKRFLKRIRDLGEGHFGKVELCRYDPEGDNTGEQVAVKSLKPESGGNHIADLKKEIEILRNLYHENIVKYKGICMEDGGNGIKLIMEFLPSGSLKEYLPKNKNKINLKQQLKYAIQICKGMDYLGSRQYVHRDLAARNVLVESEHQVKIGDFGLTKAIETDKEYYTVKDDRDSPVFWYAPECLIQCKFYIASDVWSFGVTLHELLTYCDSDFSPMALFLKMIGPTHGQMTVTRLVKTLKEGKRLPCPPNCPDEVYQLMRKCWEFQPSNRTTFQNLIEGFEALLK

T2: signal transducer and activator of transcription 1 (STAT1), endogenous (mouse (endogenous in mouse heart and HL-1)) (UniProt P42225)
T2 sequence: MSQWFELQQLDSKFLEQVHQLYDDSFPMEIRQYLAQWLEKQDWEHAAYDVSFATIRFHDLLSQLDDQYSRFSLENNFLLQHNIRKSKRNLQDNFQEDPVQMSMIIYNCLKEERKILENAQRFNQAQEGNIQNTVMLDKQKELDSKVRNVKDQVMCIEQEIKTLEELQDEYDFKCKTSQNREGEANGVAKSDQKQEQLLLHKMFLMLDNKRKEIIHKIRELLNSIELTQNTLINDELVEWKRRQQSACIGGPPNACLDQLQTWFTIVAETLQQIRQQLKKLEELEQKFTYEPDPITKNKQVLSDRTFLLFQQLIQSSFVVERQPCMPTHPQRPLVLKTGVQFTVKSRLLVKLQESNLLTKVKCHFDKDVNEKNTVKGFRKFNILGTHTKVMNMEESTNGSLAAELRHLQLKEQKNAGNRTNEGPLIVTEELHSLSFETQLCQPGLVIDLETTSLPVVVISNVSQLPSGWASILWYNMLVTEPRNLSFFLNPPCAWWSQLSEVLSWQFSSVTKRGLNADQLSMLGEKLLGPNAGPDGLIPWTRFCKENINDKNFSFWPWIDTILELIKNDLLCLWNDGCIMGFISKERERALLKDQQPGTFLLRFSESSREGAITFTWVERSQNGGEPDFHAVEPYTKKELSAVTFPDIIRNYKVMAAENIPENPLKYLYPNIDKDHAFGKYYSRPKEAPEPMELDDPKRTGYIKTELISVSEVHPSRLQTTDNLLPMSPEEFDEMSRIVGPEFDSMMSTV

B1: Myb-like, SWIRM, and MPN domains 1 protein (MYSM1), endogenous (enzyme, UniProt Q69Z66 1-819)
chain: T1 sequence

How the values were obtained:
[1] = biological target: T1, MYSM1 (Co-IP with JAK1 and SHP2, Figure S5B-C); test: co-IP; Co-IP of MYSM1 with JAK1 or SHP2 (Figure S5B-C); cells, bait and antibodies not told in the text shown
[2] = biological target: T2, signal transducer and activator of transcription 1 (STAT1), endogenous (mouse (endogenous in mouse heart and HL-1)); test: co-IP; H/R-induced HL-1 cells; immunoprecipitation with anti-STAT1 antibody, endogenous MYSM1 detected by blot
[3] = biological target: T2, signal transducer and activator of transcription 1 (STAT1), endogenous (mouse (endogenous in mouse heart and HL-1)); test: co-IP; mouse heart tissue with myocardial I/R injury; immunoprecipitation with anti-STAT1 antibody, endogenous MYSM1 detected by blot

Molecule	binding [1]	binding [2]	binding [3]
JAK1 (from UniProt P52332 1-1153) (enzyme)	no binding		
B1		binds	binds
